Assay [1] has as its target human CD38 on Ramos cells (CD38-positive Burkitt's lymphoma cell line) (human) (UniProt P28907). In words: stated with the CDC experiment of FIG. 25.
For assay [2] the target is unchanged. In words: stated with the CDC experiment of FIG. 25 (figure legend).
The target is the same in assay [3]. In words: flow cytometry on Ramos cells pre-treated with Daratumumab or Isatuximab (figure legend). (In flow cytometry, cells or beads pass a laser one at a time.)
Assay [4] has the same target. In words: flow cytometry on Ramos cells pre-treated with Daratumumab or Isatuximab.
The target is the same in assay [5]. The assay is described as follows: inferred from CDC on Ramos cells with Daratumumab.
The target is the same in assay [6]. In words: inferred from CDC on Ramos cells with Daratumumab (figure legend).

The chains behind the UniProt entries cited, without tags or fusion partners.
UniProt P28907: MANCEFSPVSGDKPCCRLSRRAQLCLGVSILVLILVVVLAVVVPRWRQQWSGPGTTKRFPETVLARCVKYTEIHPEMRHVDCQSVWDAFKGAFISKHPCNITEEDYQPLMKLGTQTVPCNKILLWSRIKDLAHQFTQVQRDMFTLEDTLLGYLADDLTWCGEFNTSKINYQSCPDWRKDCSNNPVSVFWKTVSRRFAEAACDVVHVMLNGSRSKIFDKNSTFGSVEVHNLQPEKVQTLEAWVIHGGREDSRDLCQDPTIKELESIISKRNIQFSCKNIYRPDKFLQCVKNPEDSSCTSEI

No constants are given. Whether binding was seen depends on the method and setting. Some results given as binding are weak or reduced against the parent protein; the word gives no strength.

B1: UniAb 309021 (anti-CD38 heavy chain-only antibody, IgG1 UniAb format) (antibody, V domains shown)
VH: QLQLQESGPGLVKPSETLALTCNVSGGSISSSSYYWGWIRQPPGKRLEWIGSIYYSGSTYFNPSLKSRVTISVDTSKNQFSLKLSSVTAADTAVYYCAGGDYYGPVGQWPSDYRGQGTLVTVSS
On to B1, for which the binding entry in assay [1] and in assay [2] was “binds” each time.

B2: UniAb 309407 (anti-CD38 heavy chain-only antibody, family F03, IgG1 UniAb format) (antibody, V domains shown)
VH: EVQLLESGGGLVQPGGSLRLSCAASGFIFSSYAMSWVRQAPGKGQEWVSGVSGTGVNTYYADSVKGRFTISRDNSKNTLYLQMNSLRAEDTAVYYCASGKGWDSGSWYEDYRGQGTLVTVSS
In the case of B2, the binding result in assay [3], in assay [4], in assay [1] and in assay [2] was “binds” each time.

B3: UniAb 309407 on a human IgG4 background (antibody, V domains shown)
VH: EVQLLESGGGLVQPGGSLRLSCAASGFIFSSYAMSWVRQAPGKGQEWVSGVSGTGVNTYYADSVKGRFTISRDNSKNTLYLQMNSLRAEDTAVYYCASGKGWDSGSWYEDYRGQGTLVTVSS
Consider B3, for which the binding result in assay [5] and in assay [6] was “binds” each time.

The record behind these values is patent US20200207867A1.
